The text below walks through data of paper PMC10412574.

Chains of the proteins cited; added tags and fusions are not shown.
UniProt P60604: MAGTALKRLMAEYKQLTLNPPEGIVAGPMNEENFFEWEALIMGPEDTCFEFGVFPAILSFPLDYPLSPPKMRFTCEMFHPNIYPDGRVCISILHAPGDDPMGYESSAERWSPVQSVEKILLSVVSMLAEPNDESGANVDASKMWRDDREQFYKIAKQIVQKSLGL
UniProt P22314: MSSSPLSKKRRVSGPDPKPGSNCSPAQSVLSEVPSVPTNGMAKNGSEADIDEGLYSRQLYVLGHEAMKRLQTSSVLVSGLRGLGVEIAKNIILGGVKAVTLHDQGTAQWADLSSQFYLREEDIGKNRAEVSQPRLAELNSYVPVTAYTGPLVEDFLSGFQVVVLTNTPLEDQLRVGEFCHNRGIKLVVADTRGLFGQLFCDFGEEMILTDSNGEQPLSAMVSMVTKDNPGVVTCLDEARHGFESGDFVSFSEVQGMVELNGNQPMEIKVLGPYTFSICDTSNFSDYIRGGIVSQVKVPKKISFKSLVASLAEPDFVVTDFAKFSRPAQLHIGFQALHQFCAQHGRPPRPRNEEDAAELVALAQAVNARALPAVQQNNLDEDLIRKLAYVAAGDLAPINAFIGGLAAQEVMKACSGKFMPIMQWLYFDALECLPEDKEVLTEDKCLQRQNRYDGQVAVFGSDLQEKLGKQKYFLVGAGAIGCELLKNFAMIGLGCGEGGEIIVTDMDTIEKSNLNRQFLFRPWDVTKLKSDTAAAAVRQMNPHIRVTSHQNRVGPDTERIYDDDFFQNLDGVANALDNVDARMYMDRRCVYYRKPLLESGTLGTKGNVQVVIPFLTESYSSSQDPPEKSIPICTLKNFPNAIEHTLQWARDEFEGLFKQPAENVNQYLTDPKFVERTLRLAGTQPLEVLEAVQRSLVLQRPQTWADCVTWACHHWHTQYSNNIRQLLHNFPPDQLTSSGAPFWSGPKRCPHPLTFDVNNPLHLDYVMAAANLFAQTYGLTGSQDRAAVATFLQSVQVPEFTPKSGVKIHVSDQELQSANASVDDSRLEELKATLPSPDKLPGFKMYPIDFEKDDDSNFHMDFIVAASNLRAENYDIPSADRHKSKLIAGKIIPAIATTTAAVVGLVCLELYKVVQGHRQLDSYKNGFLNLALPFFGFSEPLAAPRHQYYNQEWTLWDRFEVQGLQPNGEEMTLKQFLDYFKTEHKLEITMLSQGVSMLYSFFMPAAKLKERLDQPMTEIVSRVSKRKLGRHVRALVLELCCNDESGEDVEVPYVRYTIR

This assay concerns the target endogenous UBE2G2 (human (endogenous in 293 T)) (UniProt P60604). As to the kind of experiment: co-IP; endogenous proteins; anti-UBA1 or anti-UBE2G2 IP from total lysates of untransfected cells (293 T, 100 nM AF 3 h or vehicle; HCT116-UBA1(C1039A) cells with or without AF), immunoblot; anti-IgG control. Background: Immunoblotting shows a protein as a band on a membrane.

These are yes or no findings as the source states them, for the method shown. Binding seen in cells or lysates may run through a third protein. Some entries that bind do so weakly or less than the wild type.

Turning to “endogenous UBA1 (from UniProt P22314 1-1058) (enzyme)”, the binding result is recorded as “binds”.
